The experiment is described as follows: qHTS Assay for Lipid Storage Modulators in Drosophila S3 Cells.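 As to cell number change: cells counted by Cell Tracker Red CMTPX staining in the red channel.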 The settings on record: BODIPY lipid droplet fluorescence, 18-24 h; for cell number change: measured here: cell count max response, cells fed with added oleic acid. In a few lines:
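Drosophila S3 cells loaded with oleic acid (400 uM, as added) and compounds at several concentrations; lipid droplets imaged by 488-nm laser-scanning cytometry, 500–530 nm intensity and object ratio to cell channel. Percent activity normalized to 20 uM Triacsin C.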
For orientation: Quantitative high-throughput screening tests each substance at several concentrations.

Setting [1] is: measured here: lipid fluorescence (Fed channel) AC50, cells fed with added oleic acid.
Where [2] appears, read: measured here: cell number channel AC50, cells fed with added oleic acid.

The list shows a part of the results. These are further read-outs of the screen, such as a control signal, another cell line or another target. No call is given for them. The list favours compounds with an active or inconclusive main result. Potencies come from curve fits of mixed quality, noted in brackets.

In general, AC50 refers to the concentration giving half of the maximal activity seen. Read a low AC50 as greater potency. Turning to `N#CCCn1nc(-c2ccc(Br)cc2)cc1Nc1ccccc1NC(=O)C(F)(F)F`, the cell number change is -0.0784%. Also, the AC50 under setting [1] is 6.51 µM [rising, single point].
Take `C=CC1=C(C(=O)O)N2C(=O)C(NC(=O)Cc3ccccc3)C2SC1` (stereo unspecified): the cell number change stood at 5.59%. Also, under setting [1], the AC50 was 0.206 µM [falling, full curve].
As for `CCCCOc1ccc(C(=O)NCC(=O)NC2CCN(Cc3ccccc3)CC2)cc1`, the cell number change was determined as 30.2%. For the same molecule, the AC50 under setting [1] is 0.259 µM [rising, full curve, poor fit].
`O=C(CCn1c(=O)c2ccccc2n(CC(=O)NC2CCCC2)c1=O)NCc1ccco1`: the cell number change was determined as 45.2%. Moreover, the AC50 under setting [2] is 1.16 µM [rising, partial curve]. Under setting [1], the AC50 was 0.461 µM [rising, partial curve, poor fit].
Take `NC(=O)c1ccc(NC(=O)COC(=O)C2CC(=O)N(Cc3ccccc3)C2)cc1` (stereo unspecified): the cell number change is -40.6%. For the same molecule, the AC50 under setting [2] is 0.00651 µM [falling, full curve, poor fit]. Moreover, under setting [1], the AC50 was 0.00517 µM [falling, full curve, poor fit].
As to `CCN(CC(=O)Nc1ccc(S(N)(=O)=O)cc1)S(=O)(=O)c1cc(C)ccc1OC`, the cell number change came to 14.1%. Under setting [1], the AC50 was 0.146 µM [falling, partial curve, poor fit].
Regarding `Cc1sc2ncnc(N=Nc3c(O)[nH]c4ccccc34)c2c1C`, the AC50 under setting [1] was 29.1 µM [falling, partial curve, poor fit].
In the case of `O=C(NC1CC2CCCC(C1)N2C(=O)NC1CCCCC1)c1ccc(F)cc1` (stereo unspecified), the cell number change amounted to 1.73%.
On to `CC1=C(C#N)C(c2ccc3ncccc3c2)C(C#N)=C(C)N1`, for which the AC50 under setting [1] was 0.58 µM [falling, single point].
Turning to `O=c1[nH]c2cc(Br)cnc2nc1/C=C(\O)c1ccc(F)cc1`, the cell number change was 0.565%.
With `CCC(C)c1ccc(NC(=S)NCc2ccccn2)cc1` (stereo unspecified), the cell number change amounted to 11.7%.
As for `O=c1c2nnn(-c3cccc(F)c3)c2ncn1Cc1ccccn1`, the cell number change is 3.86%. The AC50 under setting [2] is 0.164 µM [rising, full curve, poor fit].
On to `CCN(CC)S(=O)(=O)c1cc(C(=O)N2CCc3ccccc32)ccc1Cl`, for which the cell number change worked out at 6.74%. Besides, under setting [1], the AC50 was 29.1 µM [rising, partial curve].
Regarding `COc1cccc(NC(=S)/C(=C(\[O-])c2ccc([N+](=O)[O-])cc2)[n+]2ccccc2)c1`, the cell number change was determined as 28%.
With `CCCCOc1ccc(C(=O)NCC(=O)NC2CCCCC2)cc1`, the cell number change is -3.63%. Further, the AC50 under setting [1] is 29.1 µM [rising, single point].
Regarding `O=C(NC1CCCCC1)C(=S)NCCc1ccccc1`, the cell number change was 30.8%. For the same molecule, the AC50 under setting [2] was 1.64 µM [rising, partial curve, poor fit]. For the same molecule, the AC50 under setting [1] is 6.51 µM [rising, single point].
For `Cc1ccc(NC(=O)Cn2cnc3sc(C(=O)NCc4ccco4)c(C)c3c2=O)cc1Cl`, the cell number change amounted to 47%. Under setting [2], the AC50 was 29.1 µM [rising, single point]. Moreover, under setting [1], the AC50 was 0.082 µM [rising, full curve, poor fit].
Take `CC(C)(C)CC(=O)Nc1cc(S(=O)(=O)N2CCCCCC2)ccc1Cl`: the cell number change is -2.72%. Further, the AC50 under setting [2] was 0.103 µM [falling, full curve, poor fit]. The AC50 under setting [1] was 0.103 µM [rising, full curve, poor fit].
As for `O=C(OCC(=O)N1CCN(c2ccccc2)CC1)c1ccccc1OC(F)F`, the cell number change is -27%. Further, the AC50 under setting [1] was 0.651 µM [falling, full curve, poor fit].
With `Cc1c(C(=O)N(C)Cc2cccc(F)c2)oc2c(Cl)cccc12`, the AC50 under setting [1] is 0.82 µM [rising, full curve, poor fit].
Take `CCN(Cc1nc(-c2ccc(OC)c(OC)c2)no1)C(=O)c1ccoc1C`: the cell number change stood at 5.88%. Moreover, the AC50 under setting [1] was 29.1 µM [falling, single point].
`CCOC(=O)c1cc2c(=O)n3ccccc3nc2n(Cc2ccccc2Cl)c1=N`: the cell number change was -1.43%. Under setting [1], the AC50 was 0.116 µM [falling, full curve, poor fit].
As to `O=C(CSc1ccccn1)Nc1ccc2c(c1)C(=O)c1ccccc1C2=O`, the cell number change is -69.8%. The AC50 under setting [2] was 3.26 µM [falling, partial curve]. Also, under setting [1], the AC50 was 3.66 µM [falling, full curve].
Regarding `Cc1ccc(C(=O)NCCOC23CC4CC(CC(C4)C2)C3)cc1`, the cell number change was determined as 67.9%. The AC50 under setting [2] was 29.1 µM [rising, single point]. For the same molecule, the AC50 under setting [1] was 29.1 µM [rising, single point].
For `Cc1[nH]n2c(=O)c3c(nc2c1-c1ccccc1)CCC3`, the cell number change was determined as 9.92%.
For the molecule `COc1cc(NS(=O)(=O)c2ccc(NS(=O)(=O)c3ccc(C)cc3)cc2)nc(OC)n1`, the cell number change amounted to 2.56%. The AC50 under setting [2] was 0.731 µM [rising, partial curve]. The AC50 under setting [1] was 0.116 µM [falling, single point].
On to `CCc1ccc(C(=O)C(C)OC(=O)c2cccc(S(=O)(=O)N3CCOCC3)c2)cc1` (stereo unspecified), for which the cell number change came out at 159%. In addition, under setting [2], the AC50 was 23.1 µM [rising, partial curve].
On to `Cc1cc(NCCCN2CCOCC2)n2ncc(-c3ccccc3)c2n1`, for which the cell number change is 74.5%. Further, the AC50 under setting [2] was 0.58 µM [rising, full curve]. For the same molecule, the AC50 under setting [1] is 18.4 µM [rising, partial curve].
Regarding `COc1ccc(/C=C2\SC(=S)N(NC(=O)c3csc4c3CCCC4)C2=O)cc1`, the cell number change was -120%. The AC50 under setting [2] was 29.1 µM [falling, single point].
Take `COc1ccc(NC(=O)CCC(=O)NCc2ccco2)c([N+](=O)[O-])c1`: the cell number change was 27.7%. Moreover, the AC50 under setting [2] is 0.651 µM [rising, full curve, poor fit].
With `Nc1[nH]n(-c2ccccc2)c(=O)c1N=Nc1ccc2c(c1)OCO2`, the cell number change was -36.2%. Besides, the AC50 under setting [2] was 18.4 µM [falling, single point]. For the same molecule, under setting [1], the AC50 was 13 µM [falling, partial curve].
For the molecule `Cc1ccc2[nH]c3c(c2c1)CC/C(=C/c1ccccc1)C3=O`, the cell number change was -56.1%. The AC50 under setting [1] is 1.46 µM [rising, partial curve].
Regarding `COc1ccc(Cl)cc1C(=O)NNC(=O)C1CCCO1` (stereo unspecified), the cell number change is -108%. For the same molecule, the AC50 under setting [2] was 4.61 µM [falling, partial curve].
On to `COc1ccc(O)c(CN2CCC(n3nccc3NC(=O)C3CCCC3)CC2)c1`, for which the cell number change was found to be 9.97%.
As for `Cc1cccn2cc(CCNS(=O)(=O)c3ccc4c(c3)OCCO4)nc12`, the AC50 runs as follows: under setting [2], 3.66 µM [rising, partial curve, poor fit]; under setting [1], 3.66 µM [rising, partial curve].
Regarding `C=CCc1ccc(OCCn2nnc3ccccc32)c(OC)c1`, the cell number change is -30%.
Turning to `Cc1onc(-c2ccccc2Cl)c1C(=O)NC(=S)Nc1ccccc1C(N)=O`, the cell number change turned out to be 39.3%. In addition, the AC50 under setting [2] is 23.1 µM [rising, single point]. The AC50 under setting [1] was 23.1 µM [rising, single point].
Consider `O=S(c1ccc2ccccc2c1)c1cnns1` (stereo unspecified), for which the cell number change was -21.1%. The AC50 under setting [1] was 29.1 µM [falling, single point].
As to `Cc1ccc(CC2CC(=O)N(c3cc(C)ccc3C)C2=O)cc1` (stereo unspecified), the cell number change amounted to 2.75%. Moreover, the AC50 under setting [1] was 29.1 µM [falling, single point].
Consider `Cc1ccc(-c2[nH]c3ccccc3c2SCCNC(=O)c2cc3ccccc3oc2=O)cc1`, for which the cell number change was -0.624%. The AC50 under setting [1] was 1.3 µM [rising, full curve, poor fit].
For the molecule `CCOC(=O)c1cnc(SCC(=O)Nc2cccc(OC)c2)nc1N`, the cell number change worked out at 5.19%.
Regarding `CC(=O)Nc1ccc(S(=O)(=O)NC2(C(F)(F)F)C(=O)Nc3c2c(=O)n(C)c(=O)n3C)cc1` (stereo unspecified), the cell number change was found to be 8.81%. In addition, the AC50 under setting [1] is 29.1 µM [falling, single point].
Turning to `COc1ccc(OCCN(C)CC(=O)Nc2ccccc2SC)cc1`, the cell number change amounted to 15.3%.
With `O=C(CSc1nc(NS(=O)(=O)c2ccccc2)cc(=O)[nH]1)Nc1cccc(C(F)(F)F)c1`, the cell number change came out at 67.3%. For the same molecule, the AC50 under setting [2] was 32.6 µM [rising, single point].
On to `Cc1nn(CC2CC2)c(=O)n1-c1ccccc1`, for which the cell number change is -22.4%. Also, the AC50 under setting [1] is 20.6 µM [falling, single point].
Consider `O=C(N/N=C/c1ccc(Cl)cc1Cl)C(=O)NC1CC1`, for which the cell number change amounted to 16.1%.
For `Nc1ccc2oc(-c3cccc(Br)c3)nc2c1`, the cell number change was determined as 23.9%. Moreover, the AC50 under setting [1] was 0.164 µM [rising, full curve, poor fit].
With `COc1ccc(/C=N/NC(=O)c2cc(C)n(-c3ccccc3)c2C)cc1OC`, the cell number change is -1.63%.
As for `CN(C)c1nc(=NCc2ccco2)ss1`, the cell number change was -31.5%. The AC50 under setting [2] was 9.2 µM [falling, partial curve]. Moreover, the AC50 under setting [1] was 8.2 µM [falling, partial curve].
Take `CC1(C)C(=O)Nc2ccccc2N1C(=O)COC(=O)c1cccnc1`: the cell number change is 7.29%. Also, the AC50 under setting [1] is 6.51 µM [rising, single point].
In the case of `CCc1cccc(NC(=O)CS(=O)Cc2nc(-c3ccc(C)cc3)oc2C)c1` (stereo unspecified), under setting [1], the AC50 was 0.13 µM [rising, single point].
`Cc1cccc(NC(=O)c2cc(-c3ccc(C)c(C)c3O)n[nH]2)c1`: the cell number change was determined as 55.3%. Besides, the AC50 under setting [2] was 29.1 µM [rising, single point]. For the same molecule, the AC50 under setting [1] was 0.13 µM [rising, full curve].
Regarding `CCCCOc1ccc(NC(=O)CN2CCN(CC)CC2)cc1`, the cell number change was -26.6%. The AC50 under setting [2] is 0.651 µM [falling, full curve, poor fit]. In addition, the AC50 under setting [1] is 29.1 µM [rising, single point].
On to `O=S(=O)(Nc1ccc(-c2nc3cccnc3s2)cc1)c1ccc(Cl)s1`, for which the cell number change amounted to 40.1%. Also, the AC50 under setting [2] is 3.66 µM [rising, full curve]. The AC50 under setting [1] was 3.66 µM [rising, full curve].
Take `O=C(/C=C1\SC(=O)NC1=O)Nc1ccc(C(=O)O)cc1`: the cell number change turned out to be 27.6%. Moreover, the AC50 under setting [1] is 29.1 µM [falling, single point].
On to `COc1cc(Nc2nc3ccccc3nc2NS(=O)(=O)c2ccc([N+](=O)[O-])cc2)cc(OC)c1OC`, for which the cell number change is -9.54%. For the same molecule, the AC50 under setting [1] was 0.326 µM [rising, partial curve, poor fit].
On to `CC(=O)Nc1cc2nc(C)n(Cc3ccccc3)c2nc1C`, for which the cell number change was -1.02%. For the same molecule, the AC50 under setting [1] is 0.146 µM [rising, full curve, poor fit].
With `O=C(c1ccco1)N1CCN(C(=O)c2cc(-c3ccc(F)cc3)no2)CC1`, the cell number change was -9.44%. Under setting [1], the half-maximal activity concentration (AC50) was 18.4 µM [falling, single point].
